Measured values published in patent US8217085B2 (priority 2009, dated 2012).
Values joined by “and” are separate entries in the source; they are usually repeats but may differ in a detail not shown here. Equal entries are not always repeated. Where two headings read alike, the source gives them in different places. This continues a long series; more values of the same kind are listed elsewhere.

System: ATCC strain 43300 Staphylococcus aureus
[1] = 10% MSM, 60 μg/ml oxacillin, 72 hours
[2] = 10% MSM, 60 μg/ml oxacillin, 96 hours
[3] = 10% MSM, 60 μg/ml oxacillin, 120 hours
[4] = 11% MSM, 12 μg/ml oxacillin, 96 hours
[5] = 11% MSM, 12 μg/ml oxacillin, 120 hours
[6] = 11% MSM, 30 μg/ml oxacillin, 96 hours
[7] = 11% MSM, 30 μg/ml oxacillin, 120 hours
[8] = 11% MSM, 60 μg/ml oxacillin, 72 hours
[9] = 11% MSM, 60 μg/ml oxacillin, 120 hours
[10] = 12% MSM, 12 μg/ml oxacillin, 96 hours
[11] = 12% MSM, 12 μg/ml oxacillin, 120 hours
[12] = 12% MSM, 30 μg/ml oxacillin, 96 hours
[13] = 12% MSM, 30 μg/ml oxacillin, 120 hours
[14] = 12% MSM, 60 μg/ml oxacillin, 96 hours
[15] = 12% MSM, 60 μg/ml oxacillin, 120 hours
[16] = 13% MSM, 12 μg/ml oxacillin, 96 hours
[17] = 13% MSM, 12 μg/ml oxacillin, 120 hours
[18] = 13% MSM, 30 μg/ml oxacillin, 96 hours
[19] = 13% MSM, 30 μg/ml oxacillin, 120 hours
[20] = 13% MSM, 60 μg/ml oxacillin, 96 hours
[21] = 13% MSM, 60 μg/ml oxacillin, 120 hours
[22] = 14% MSM, 12 μg/ml oxacillin, 96 hours
[23] = 14% MSM, 12 μg/ml oxacillin, 120 hours
[24] = 14% MSM, 30 μg/ml oxacillin, 96 hours
[25] = 14% MSM, 30 μg/ml oxacillin, 120 hours
[26] = 14% MSM, 60 μg/ml oxacillin, 120 hours
[27] = 15% MSM, 12 μg/ml oxacillin, 96 hours
[28] = 15% MSM, 12 μg/ml oxacillin, 120 hours
[29] = 15% MSM, 30 μg/ml oxacillin, 96 hours
[30] = 15% MSM, 30 μg/ml oxacillin, 120 hours
[31] = 15% MSM, 60 μg/ml oxacillin, 120 hours
[32] = 16% MSM, 12 μg/ml oxacillin, 96 hours
[33] = 16% MSM, 12 μg/ml oxacillin, 120 hours
[34] = 16% MSM, 30 μg/ml oxacillin, 120 hours
[35] = 16% MSM, 60 μg/ml oxacillin, 96 hours
[36] = 16% MSM, 60 μg/ml oxacillin, 120 hours

CS(C)(=O)=O [MSM, methylsulfonylmethane]
survival (10% MSM, 30 μg/ml oxacillin, 120 hours): >3.3 × 10^5 cfu/ml | survival (10% MSM, 60 μg/ml oxacillin, 48 hours): 1.6 × 10^2 cfu/ml and 1.4 × 10^2 cfu/ml | Average Log [1]: 2.6 Log | survival [1]: 3.9 × 10^2 cfu/ml and 4.0 × 10^2 cfu/ml and 3.4 × 10^2 cfu/ml | Average Log [2]: 3.6 Log | survival [2]: 3.9 × 10^3 cfu/ml and 4.0 × 10^3 cfu/ml and 3.5 × 10^3 cfu/ml | Average Log [3]: 4.2 Log | survival [3]: 1.6 × 10^4 cfu/ml and 1.5 × 10^4 cfu/ml and 1.7 × 10^4 cfu/ml | survival (11% MSM, 12 μg/ml oxacillin, 72 hours): 4.4 × 10^3 cfu/ml and 4.5 × 10^3 cfu/ml and 4.0 × 10^3 cfu/ml | Average Log [4]: 5.5 Log | survival [4]: >3.3 × 10^5 cfu/ml | Average Log [5]: 5.5 Log | survival [5]: >3.3 × 10^5 cfu/ml | survival (11% MSM, 30 μg/ml oxacillin, 48 hours): 2.5 × 10^2 cfu/ml and 2.7 × 10^2 cfu/ml and 2.8 × 10^2 cfu/ml | survival (11% MSM, 30 μg/ml oxacillin, 72 hours): 1.2 × 10^3 cfu/ml and 1.7 × 10^3 cfu/ml and 1.5 × 10^3 cfu/ml | Average Log [6]: 5.5 Log | survival [6]: >3.3 × 10^5 cfu/ml | Average Log [7]: 5.5 Log | survival [7]: >3.3 × 10^5 cfu/ml | survival (11% MSM, 60 μg/ml oxacillin, 48 hours): 1.3 × 10^2 cfu/ml and 1.7 × 10^2 cfu/ml and 1.2 × 10^2 cfu/ml | Average Log [8]: 1 Log | survival [8]: 1.0 × 10^1 cfu/ml and 2.0 × 10^1 cfu/ml | survival (11% MSM, 60 μg/ml oxacillin, 96 hours): 0 cfu/ml | Average Log [9]: 0 Log | survival [9]: 0 cfu/ml | survival (12% MSM, 12 μg/ml oxacillin, 72 hours): 1.5 × 10^3 cfu/ml and 1.1 × 10^3 cfu/ml and 1.3 × 10^3 cfu/ml | Average Log [10]: 3.8 Log | survival [10]: 6.8 × 10^3 cfu/ml and 7.0 × 10^3 cfu/ml | Average Log [11]: 5.5 Log | survival [11]: >3.3 × 10^5 cfu/ml | survival (12% MSM, 30 μg/ml oxacillin, 48 hours): 3.9 × 10^2 cfu/ml and 3.6 × 10^2 cfu/ml and 4.0 × 10^2 cfu/ml | survival (12% MSM, 30 μg/ml oxacillin, 72 hours): 4.8 × 10^2 cfu/ml and 3.9 × 10^2 cfu/ml and 4.9 × 10^2 cfu/ml | Average Log [12]: 3.7 Log | survival [12]: 6.9 × 10^3 cfu/ml and 3.9 × 10^3 cfu/ml | Average Log [13]: 4.7 Log | survival [13]: 6.8 × 10^4 cfu/ml and 3.9 × 10^4 cfu/ml and 6.9 × 10^4 cfu/ml | survival (12% MSM, 60 μg/ml oxacillin, 48 hours): 1.1 × 10^2 cfu/ml and 1.0 × 10^2 cfu/ml | survival (12% MSM, 60 μg/ml oxacillin, 72 hours): 2.8 × 10^2 cfu/ml and 2.1 × 10^2 cfu/ml and 2.5 × 10^2 cfu/ml | Average Log [14]: 3.5 Log | survival [14]: 3.0 × 10^3 cfu/ml and 3.5 × 10^3 cfu/ml and 3.1 × 10^3 cfu/ml | Average Log [15]: 4.2 Log | survival [15]: 1.72 × 10^4 cfu/ml and 1.6 × 10^4 cfu/ml and 1.5 × 10^4 cfu/ml | survival (13% MSM, 12 μg/ml oxacillin, 72 hours): 5.2 × 10^2 cfu/ml and 5.1 × 10^2 cfu/ml and 5.4 × 10^2 cfu/ml | Average Log [16]: 3.2 Log | survival [16]: 1.6 × 10^3 cfu/ml and 1.7 × 10^3 cfu/ml and 1.2 × 10^3 cfu/ml | Average Log [17]: 3.8 Log | survival [17]: 6.2 × 10^3 cfu/ml and 6.7 × 10^3 cfu/ml | survival (13% MSM, 30 μg/ml oxacillin, 48 hours): 3.0 × 10^2 cfu/ml and 3.1 × 10^2 cfu/ml | Average Log [18]: 2.5 Log | survival [18]: 3.3 × 10^2 cfu/ml and 3.1 × 10^2 cfu/ml and 3.2 × 10^2 cfu/ml | Average Log [19]: 3.0 Log | survival [19]: 1.02 × 10^3 cfu/ml and 1.01 × 10^3 cfu/ml | survival (13% MSM, 60 μg/ml oxacillin, 48 hours): 6.0 × 10^1 cfu/ml and 4.0 × 10^1 cfu/ml and 5.0 × 10^1 cfu/ml | survival (13% MSM, 60 μg/ml oxacillin, 72 hours): 1.0 × 10^1 cfu/ml | Average Log [20]: 1.6 Log | survival [20]: 4.0 × 10^1 cfu/ml and 5.0 × 10^1 cfu/ml | Average Log [21]: 0 Log | survival [21]: 0 cfu/ml | survival (14% MSM, 12 μg/ml oxacillin, 72 hours): 1.1 × 10^2 cfu/ml and 1.2 × 10^2 cfu/ml | Average Log [22]: 1.8 Log | survival [22]: 6.0 × 10^1 cfu/ml and 5.0 × 10^1 cfu/ml | Average Log [23]: 2.0 Log | survival [23]: 1.1 × 10^2 cfu/ml and 1.2 × 10^2 cfu/ml | survival (14% MSM, 30 μg/ml oxacillin, 48 hours): 3.6 × 10^2 cfu/ml and 3.2 × 10^2 cfu/ml and 3.5 × 10^2 cfu/ml | survival (14% MSM, 30 μg/ml oxacillin, 72 hours): 1.4 × 10^2 cfu/ml and 1.7 × 10^2 cfu/ml and 1.8 × 10^2 cfu/ml | Average Log [24]: 1.7 Log | survival [24]: 5.0 × 10^1 cfu/ml and 6.0 × 10^1 cfu/ml | Average Log [25]: 1.3 Log | survival [25]: 3.0 × 10^1 cfu/ml and 2.0 × 10^1 cfu/ml | survival (14% MSM, 60 μg/ml oxacillin, 48 hours): 1.5 × 10^2 cfu/ml and 1.7 × 10^2 cfu/ml and 1.2 × 10^2 cfu/ml | survival (14% MSM, 60 μg/ml oxacillin, 72 hours): 2.0 × 10^1 cfu/ml and 4.0 × 10^1 cfu/ml | survival (14% MSM, 60 μg/ml oxacillin, 96 hours): 0 cfu/ml | Average Log [26]: 0 Log | survival [26]: 0 cfu/ml | survival ([…]% MSM, 12 μg/ml oxacillin, 72 hours): 2.3 × 10^2 cfu/ml and 2.2 × 10^2 cfu/ml and 1.2 × 10^2 cfu/ml | Average Log [27]: 2.1 Log | survival [27]: 1.2 × 10^2 cfu/ml and 1.3 × 10^2 cfu/ml | Average Log [28]: 2.0 Log | survival [28]: 1.1 × 10^2 cfu/ml and 1.3 × 10^2 cfu/ml and 1.2 × 10^2 cfu/ml | survival ([…]% MSM, 30 μg/ml oxacillin, 48 hours): 6.2 × 10^2 cfu/ml and 6.4 × 10^2 cfu/ml | survival ([…]% MSM, 30 μg/ml oxacillin, 72 hours): 2.3 × 10^2 cfu/ml and 2.2 × 10^2 cfu/ml and 2.8 × 10^2 cfu/ml | Average Log [29]: 1.9 Log | survival [29]: 8.0 × 10^1 cfu/ml | Average Log [30]: 0 Log | survival [30]: 0 cfu/ml | survival ([…]% MSM, 60 μg/ml oxacillin, 48 hours): 1.2 × 10^2 cfu/ml and 1.3 × 10^2 cfu/ml | survival ([…]% MSM, 60 μg/ml oxacillin, 72 hours): 0 cfu/ml | survival ([…]% MSM, 60 μg/ml oxacillin, 96 hours): 0 cfu/ml | Average Log [31]: 0 Log | survival [31]: 0 cfu/ml | survival (16% MSM, 12 μg/ml oxacillin, 72 hours): 1.1 × 10^2 cfu/ml and 1.2 × 10^2 cfu/ml and 1.6 × 10^2 cfu/ml | Average Log [32]: 2.2 Log | survival [32]: 1.4 × 10^2 cfu/ml and 1.6 × 10^2 cfu/ml | Average Log [33]: 1.5 Log | survival [33]: 3.0 × 10^1 cfu/ml and 2.0 × 10^1 cfu/ml | survival (16% MSM, 30 μg/ml oxacillin, 48 hours): 4.6 × 10^2 cfu/ml and 4.0 × 10^2 cfu/ml and 4.1 × 10^2 cfu/ml | survival (16% MSM, 30 μg/ml oxacillin, 72 hours): 9 × 10^1 cfu/ml and 8.0 × 10^1 cfu/ml | Average Log (16% MSM, 30 μg/ml oxacillin, 96 hours): 1.3 Log | Average Log [34]: 1.3 Log | survival [34]: 2.0 × 10^1 cfu/ml and 3.0 × 10^1 cfu/ml | survival (16% MSM, 60 μg/ml oxacillin, 48 hours): 9.0 × 10^1 cfu/ml and 6.0 × 10^1 cfu/ml | survival (16% MSM, 60 μg/ml oxacillin, 72 hours): 6.0 × 10^1 cfu/ml and 5.0 × 10^1 cfu/ml | Average Log [35]: 1.3 Log | survival [35]: 2.0 × 10^1 cfu/ml and 3.0 × 10^1 cfu/ml | Average Log [36]: 0 Log | survival [36]: 0 cfu/ml
